Laboratory results: the supplement of paper PMC11006884
The list shows a part of the results, in another mix than the full data. Single values of this set are uncertain.

By UniProt entry, the sequences of proteins in these tests, tags left out. Where a name states a change or a piece, a line headed by the entry shows the natural chain unless it says otherwise.
UniProt Q6PJG6: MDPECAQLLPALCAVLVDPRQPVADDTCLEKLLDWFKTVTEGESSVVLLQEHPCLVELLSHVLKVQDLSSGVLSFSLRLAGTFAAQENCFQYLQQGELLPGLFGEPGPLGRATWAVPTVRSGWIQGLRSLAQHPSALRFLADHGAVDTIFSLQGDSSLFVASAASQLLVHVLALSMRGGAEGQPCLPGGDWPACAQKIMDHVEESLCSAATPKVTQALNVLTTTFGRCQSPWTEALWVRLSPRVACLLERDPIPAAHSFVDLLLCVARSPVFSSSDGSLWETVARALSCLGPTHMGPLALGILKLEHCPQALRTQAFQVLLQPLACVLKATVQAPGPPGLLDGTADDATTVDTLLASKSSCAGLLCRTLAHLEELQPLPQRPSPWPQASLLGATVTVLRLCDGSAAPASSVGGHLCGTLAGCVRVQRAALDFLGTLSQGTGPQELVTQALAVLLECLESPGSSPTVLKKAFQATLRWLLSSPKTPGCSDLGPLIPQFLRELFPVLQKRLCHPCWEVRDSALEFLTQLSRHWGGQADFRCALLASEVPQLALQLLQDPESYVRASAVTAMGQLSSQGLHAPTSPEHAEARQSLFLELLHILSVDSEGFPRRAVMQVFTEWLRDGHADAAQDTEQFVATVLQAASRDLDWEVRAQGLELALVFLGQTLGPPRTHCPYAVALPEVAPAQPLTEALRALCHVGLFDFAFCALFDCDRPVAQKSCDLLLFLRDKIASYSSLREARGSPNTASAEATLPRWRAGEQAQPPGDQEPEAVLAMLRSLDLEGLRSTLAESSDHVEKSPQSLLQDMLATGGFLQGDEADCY
UniProt Q5TAX3: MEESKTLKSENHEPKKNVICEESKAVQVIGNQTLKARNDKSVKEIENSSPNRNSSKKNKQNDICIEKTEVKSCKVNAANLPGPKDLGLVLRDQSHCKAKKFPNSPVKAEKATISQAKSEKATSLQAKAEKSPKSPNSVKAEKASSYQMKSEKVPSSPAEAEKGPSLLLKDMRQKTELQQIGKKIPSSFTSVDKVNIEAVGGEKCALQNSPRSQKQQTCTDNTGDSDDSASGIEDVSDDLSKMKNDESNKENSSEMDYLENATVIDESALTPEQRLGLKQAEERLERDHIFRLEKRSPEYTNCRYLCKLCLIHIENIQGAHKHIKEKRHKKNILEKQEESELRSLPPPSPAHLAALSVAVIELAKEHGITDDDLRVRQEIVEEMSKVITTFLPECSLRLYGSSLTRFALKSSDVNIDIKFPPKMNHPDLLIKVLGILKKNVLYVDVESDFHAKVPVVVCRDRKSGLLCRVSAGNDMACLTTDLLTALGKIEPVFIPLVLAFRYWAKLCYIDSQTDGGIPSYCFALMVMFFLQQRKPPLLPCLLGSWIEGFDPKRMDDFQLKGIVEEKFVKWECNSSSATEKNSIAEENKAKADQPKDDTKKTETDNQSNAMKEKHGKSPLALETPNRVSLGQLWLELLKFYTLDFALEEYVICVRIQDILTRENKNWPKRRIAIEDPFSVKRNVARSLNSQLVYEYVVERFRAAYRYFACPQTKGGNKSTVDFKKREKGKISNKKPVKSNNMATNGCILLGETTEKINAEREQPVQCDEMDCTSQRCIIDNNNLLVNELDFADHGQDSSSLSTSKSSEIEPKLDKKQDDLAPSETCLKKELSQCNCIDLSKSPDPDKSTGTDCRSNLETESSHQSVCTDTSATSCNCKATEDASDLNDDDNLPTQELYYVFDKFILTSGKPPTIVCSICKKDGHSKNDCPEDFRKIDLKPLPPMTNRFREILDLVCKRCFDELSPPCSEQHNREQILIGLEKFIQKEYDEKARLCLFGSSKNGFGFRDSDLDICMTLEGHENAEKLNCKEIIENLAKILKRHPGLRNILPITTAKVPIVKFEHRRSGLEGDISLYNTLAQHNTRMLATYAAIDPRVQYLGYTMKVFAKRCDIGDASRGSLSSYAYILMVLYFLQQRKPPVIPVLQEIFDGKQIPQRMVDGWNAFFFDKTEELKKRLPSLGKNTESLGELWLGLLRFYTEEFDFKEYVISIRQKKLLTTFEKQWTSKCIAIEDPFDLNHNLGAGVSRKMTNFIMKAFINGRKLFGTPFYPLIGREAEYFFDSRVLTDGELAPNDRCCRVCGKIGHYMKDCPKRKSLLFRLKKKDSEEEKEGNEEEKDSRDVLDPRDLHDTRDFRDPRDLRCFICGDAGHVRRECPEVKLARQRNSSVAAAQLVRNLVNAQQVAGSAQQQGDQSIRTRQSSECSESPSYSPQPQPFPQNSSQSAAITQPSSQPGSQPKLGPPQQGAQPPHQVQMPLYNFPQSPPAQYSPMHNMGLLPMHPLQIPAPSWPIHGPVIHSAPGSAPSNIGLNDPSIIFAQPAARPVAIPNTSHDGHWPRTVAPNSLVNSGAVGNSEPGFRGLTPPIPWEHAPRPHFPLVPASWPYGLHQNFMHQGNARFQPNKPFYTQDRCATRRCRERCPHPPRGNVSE
UniProt Q5FBB7: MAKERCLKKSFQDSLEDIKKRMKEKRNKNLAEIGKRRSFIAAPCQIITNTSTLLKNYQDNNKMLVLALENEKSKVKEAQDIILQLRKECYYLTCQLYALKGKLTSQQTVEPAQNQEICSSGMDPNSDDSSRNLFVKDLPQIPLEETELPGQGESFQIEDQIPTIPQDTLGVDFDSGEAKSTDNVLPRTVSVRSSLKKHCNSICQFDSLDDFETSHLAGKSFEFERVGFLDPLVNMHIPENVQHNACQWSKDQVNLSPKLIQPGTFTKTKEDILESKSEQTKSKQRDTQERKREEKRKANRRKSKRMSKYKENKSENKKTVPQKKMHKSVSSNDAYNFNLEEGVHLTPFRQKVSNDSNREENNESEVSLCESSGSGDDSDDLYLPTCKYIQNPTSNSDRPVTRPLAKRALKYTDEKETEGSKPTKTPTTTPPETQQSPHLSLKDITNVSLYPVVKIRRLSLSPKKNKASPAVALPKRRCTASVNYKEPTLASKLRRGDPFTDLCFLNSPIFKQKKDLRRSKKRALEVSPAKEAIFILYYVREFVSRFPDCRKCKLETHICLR
UniProt Q5JRA6: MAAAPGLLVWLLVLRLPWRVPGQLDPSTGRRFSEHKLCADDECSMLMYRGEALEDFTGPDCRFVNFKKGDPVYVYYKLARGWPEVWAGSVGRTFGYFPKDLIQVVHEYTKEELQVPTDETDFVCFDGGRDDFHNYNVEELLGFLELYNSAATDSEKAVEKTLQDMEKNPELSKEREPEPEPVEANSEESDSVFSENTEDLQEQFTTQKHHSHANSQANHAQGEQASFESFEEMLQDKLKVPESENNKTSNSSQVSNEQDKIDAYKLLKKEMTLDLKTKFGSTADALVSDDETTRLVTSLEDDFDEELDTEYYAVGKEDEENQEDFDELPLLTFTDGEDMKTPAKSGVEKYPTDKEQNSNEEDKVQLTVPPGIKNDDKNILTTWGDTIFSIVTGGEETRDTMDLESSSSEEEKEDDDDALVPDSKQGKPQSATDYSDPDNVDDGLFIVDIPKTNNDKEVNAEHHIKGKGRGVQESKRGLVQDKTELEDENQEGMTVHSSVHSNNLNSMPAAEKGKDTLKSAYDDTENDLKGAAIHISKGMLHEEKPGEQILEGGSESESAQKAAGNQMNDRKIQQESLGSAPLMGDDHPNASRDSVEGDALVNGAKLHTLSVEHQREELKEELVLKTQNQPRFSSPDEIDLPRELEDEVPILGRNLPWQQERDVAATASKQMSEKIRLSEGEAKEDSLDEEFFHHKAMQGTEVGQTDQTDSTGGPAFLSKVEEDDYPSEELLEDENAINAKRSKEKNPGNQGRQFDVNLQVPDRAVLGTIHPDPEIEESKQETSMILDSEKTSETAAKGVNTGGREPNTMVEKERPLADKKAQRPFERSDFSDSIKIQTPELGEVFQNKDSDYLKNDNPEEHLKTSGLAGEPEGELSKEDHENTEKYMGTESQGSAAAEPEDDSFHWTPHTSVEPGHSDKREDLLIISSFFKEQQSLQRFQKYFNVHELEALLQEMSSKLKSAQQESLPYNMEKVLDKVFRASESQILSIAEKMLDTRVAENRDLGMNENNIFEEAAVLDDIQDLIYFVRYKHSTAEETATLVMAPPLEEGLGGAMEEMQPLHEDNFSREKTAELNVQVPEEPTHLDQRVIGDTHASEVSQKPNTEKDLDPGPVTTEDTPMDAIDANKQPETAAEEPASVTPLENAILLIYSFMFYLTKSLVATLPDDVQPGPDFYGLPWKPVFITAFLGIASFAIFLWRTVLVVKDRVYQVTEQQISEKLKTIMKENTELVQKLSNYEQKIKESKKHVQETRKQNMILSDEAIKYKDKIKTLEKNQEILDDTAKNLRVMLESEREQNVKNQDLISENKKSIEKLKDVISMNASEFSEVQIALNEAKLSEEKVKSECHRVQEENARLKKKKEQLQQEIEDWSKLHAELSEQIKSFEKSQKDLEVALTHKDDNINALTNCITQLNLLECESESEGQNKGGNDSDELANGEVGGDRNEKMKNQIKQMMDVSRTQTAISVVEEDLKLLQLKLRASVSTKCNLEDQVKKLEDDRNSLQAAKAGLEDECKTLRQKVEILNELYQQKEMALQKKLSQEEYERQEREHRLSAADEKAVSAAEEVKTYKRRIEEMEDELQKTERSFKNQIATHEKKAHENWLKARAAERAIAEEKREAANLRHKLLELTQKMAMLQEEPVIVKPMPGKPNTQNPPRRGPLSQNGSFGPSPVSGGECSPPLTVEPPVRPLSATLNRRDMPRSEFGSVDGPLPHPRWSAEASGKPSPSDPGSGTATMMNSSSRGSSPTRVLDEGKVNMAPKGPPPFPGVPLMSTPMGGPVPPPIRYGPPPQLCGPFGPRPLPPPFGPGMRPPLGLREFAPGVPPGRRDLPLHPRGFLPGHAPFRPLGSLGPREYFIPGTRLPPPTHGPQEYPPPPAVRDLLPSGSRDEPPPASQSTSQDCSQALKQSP
UniProt Q5TEU4: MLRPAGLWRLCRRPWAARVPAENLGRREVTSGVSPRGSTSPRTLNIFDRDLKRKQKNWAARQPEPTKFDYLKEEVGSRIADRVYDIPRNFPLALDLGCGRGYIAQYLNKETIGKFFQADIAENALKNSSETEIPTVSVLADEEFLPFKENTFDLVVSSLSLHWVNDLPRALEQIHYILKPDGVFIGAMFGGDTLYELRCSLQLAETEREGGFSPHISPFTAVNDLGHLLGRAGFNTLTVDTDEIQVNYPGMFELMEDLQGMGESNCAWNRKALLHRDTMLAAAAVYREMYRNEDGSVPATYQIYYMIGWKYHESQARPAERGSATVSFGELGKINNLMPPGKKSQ
UniProt Q5TCZ1: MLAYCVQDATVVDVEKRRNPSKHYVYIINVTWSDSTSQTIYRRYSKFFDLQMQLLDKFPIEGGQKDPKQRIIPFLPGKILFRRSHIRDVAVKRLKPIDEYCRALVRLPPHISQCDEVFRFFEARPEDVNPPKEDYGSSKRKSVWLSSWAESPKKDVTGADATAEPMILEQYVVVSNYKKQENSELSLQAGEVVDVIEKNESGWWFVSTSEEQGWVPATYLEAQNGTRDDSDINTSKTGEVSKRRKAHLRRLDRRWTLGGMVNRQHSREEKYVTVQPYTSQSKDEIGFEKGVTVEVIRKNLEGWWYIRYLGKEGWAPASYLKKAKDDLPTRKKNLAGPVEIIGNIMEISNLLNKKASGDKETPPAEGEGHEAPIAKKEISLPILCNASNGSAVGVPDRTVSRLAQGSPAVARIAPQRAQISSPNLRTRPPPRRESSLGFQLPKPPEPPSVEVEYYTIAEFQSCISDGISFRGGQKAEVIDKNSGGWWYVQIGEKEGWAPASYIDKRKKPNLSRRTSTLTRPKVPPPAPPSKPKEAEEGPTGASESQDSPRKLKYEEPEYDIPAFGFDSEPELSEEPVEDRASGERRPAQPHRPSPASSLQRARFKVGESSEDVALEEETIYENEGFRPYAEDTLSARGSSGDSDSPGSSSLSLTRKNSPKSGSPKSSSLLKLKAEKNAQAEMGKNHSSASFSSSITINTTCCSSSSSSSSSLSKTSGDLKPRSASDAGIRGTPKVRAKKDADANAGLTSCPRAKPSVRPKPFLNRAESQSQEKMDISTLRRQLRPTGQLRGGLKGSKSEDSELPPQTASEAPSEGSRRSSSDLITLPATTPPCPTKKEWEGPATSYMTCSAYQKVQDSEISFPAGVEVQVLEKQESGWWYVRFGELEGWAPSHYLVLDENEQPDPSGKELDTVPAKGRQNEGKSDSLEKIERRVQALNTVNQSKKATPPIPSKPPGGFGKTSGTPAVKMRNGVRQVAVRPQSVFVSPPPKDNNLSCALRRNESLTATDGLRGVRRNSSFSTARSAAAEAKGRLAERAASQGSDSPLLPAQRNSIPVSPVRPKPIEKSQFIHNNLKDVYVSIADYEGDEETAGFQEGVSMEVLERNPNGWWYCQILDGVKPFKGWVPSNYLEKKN

Compound: COC(=O)/C=C/c1ccccc1 [methyl cinnamate]
Test: log2 ratio of iodoacetamide-alkyne labeling of the cysteine site, DMSO over compound (competition); higher = stronger covalent engagement of the cysteine by the compound, active = 1 or more
Conditions: 500 µM; treatment time 1 h; system: HEK293T cell lysate
In short: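 After 1 h at ambient temperature with vehicle or electrophile (500 µM), HEK293T lysate (2 mg/mL) was labelled for 1 h with iodoacetamide alkyne and clicked to sCIP-TMT reagents. Pooled samples were trypsin-digested overnight at 37 °C, streptavidin-enriched, acid-eluted and analysed by Orbitrap Eclipse LC-MS/MS with FAIMS, then quantified in FragPipe over three replicates with duplicate channels. A cysteine's log2 competition ratio is its mean control-channel over mean compound-channel reporter intensity. Cysteines quantified in only one replicate were not included.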

Target	log2 ratio of iodoacetamide-alkyne labeling
HP1BP3 C412 (UniProt Q5SSJ5)	inactive: -0.0499
HSDL2 C11 (UniProt Q6YN16)	inactive: 0.0719
UniProt Q6PJG6_C487	inactive: 0.163
HIST2H3A C111 (UniProt Q71DI3)	inactive: -0.13
ARHGAP17 C53 (UniProt Q68EM7)	inactive: 0.362
EDC4 C1130 (UniProt Q6P2E9)	inactive: 0.135
ZNF318 C242 (UniProt Q5VUA4)	inactive: -0.0335
UniProt Q5TAX3_C994	inactive: 0.111
UniProt Q5FBB7_C44	inactive: -0.0616
ZC3H14 C540 (UniProt Q6PJT7)	inactive: 0.313
MIA3 C1486 (UniProt Q5JRA6)	inactive: 0.194
ARL6IP4 C220 (UniProt Q66PJ3)	inactive: 0.368
UniProt Q5TEU4_C199	inactive: 0.289
SH3PXD2A C384 (UniProt Q5TCZ1)	inactive: 0.297

Two entries from above in another layout.
UniProt Q6PJG6_C487
  log2 ratio of iodoacetamide-alkyne labeling: inactive: 0.163
ARHGAP17 C53 (UniProt Q68EM7)
  log2 ratio of iodoacetamide-alkyne labeling: inactive: 0.362
